Source: article PMC11252331

The chains behind the UniProt entries cited, without tags or fusion partners. Where a name states a change or a piece, a line headed by the entry shows the natural chain unless it says otherwise.
UniProt Q92743: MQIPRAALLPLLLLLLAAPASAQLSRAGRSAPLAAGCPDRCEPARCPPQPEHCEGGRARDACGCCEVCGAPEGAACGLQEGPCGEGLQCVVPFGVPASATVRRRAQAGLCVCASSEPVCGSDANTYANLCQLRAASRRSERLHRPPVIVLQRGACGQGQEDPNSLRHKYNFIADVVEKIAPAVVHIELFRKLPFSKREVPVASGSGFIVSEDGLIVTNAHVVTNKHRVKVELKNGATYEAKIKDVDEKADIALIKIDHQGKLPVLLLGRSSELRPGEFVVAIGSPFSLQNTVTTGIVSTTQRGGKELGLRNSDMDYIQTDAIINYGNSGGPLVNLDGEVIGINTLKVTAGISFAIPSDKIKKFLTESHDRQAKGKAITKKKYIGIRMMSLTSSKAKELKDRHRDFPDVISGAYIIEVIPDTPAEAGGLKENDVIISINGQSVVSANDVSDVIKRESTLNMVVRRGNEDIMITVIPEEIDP

What was measured:
[1] = molecular target: ΔN HTRA1 D174R-S328A (proteolytically inactive corrector variant) (human) (UniProt Q92743); experiment: SEC-MALS; Superdex 200 Increase 10/300, 2x PBS, 56 µl of 10 mg/ml protein (273 µM monomer equivalent; A173T 6.5 mg/ml, 178 µM); single proteins or D174R-S328A + R274Q mixed at a 1:1 ratio; both purified
[2] = molecular target: ΔN HTRA1 D174R-S328A (proteolytically inactive corrector variant) (human) (UniProt Q92743); experiment: native MS; 200 mM ammonium acetate pH 6.8, complex formation at 0.5 to 25 µM protein; D174R-S328A (1.5 µM) titrated with R274Q; both purified
[3] = molecular target: ΔN HTRA1 D174R-S328A (proteolytically inactive corrector variant) (human) (UniProt Q92743); experiment: cross-linking; 0.5 µM HTRA1, 50 mM NaPi, 50 mM NaCl pH 8.0, 37 °C, 0.5% glutaraldehyde 2 min; silver staining or Western blot; single proteins or mixtures; both purified
[4] = molecular target: ΔN HTRA1 D174R-S328A (proteolytically inactive corrector variant) (human) (UniProt Q92743); experiment: SEC; analytical SEC, Agilent AdvanceBio SEC 300 Å column, 2x PBS, 10 µl of 10 mg/ml protein (273 µM monomer equivalent; A173T 6.5 mg/ml, 178 µM); single proteins or mixtures; both purified
[5] = molecular target: ΔN HTRA1 D174R-S328A (proteolytically inactive corrector variant) (human) (UniProt Q92743); experiment: AUC; sedimentation velocity, 2.8 mg/mL protein, 100 mM NaH2PO4, 150 mM NaCl pH 8.0, 50,000 rpm; both purified
[6] = molecular target: ΔN HTRA1 wild type (human HTRA1 lacking the N-terminal IGFBP7-like fragment) (human) (UniProt Q92743); experiment: cross-linking; 0.5 µM HTRA1, 50 mM NaPi, 50 mM NaCl pH 8.0, 37 °C, 0.5% glutaraldehyde 2 min; silver staining or Western blot; single proteins or mixtures; both purified

binding [1] | binding [2] | binding [3] | binding [4] | binding [5] | binding [6] | Substance
binds | binds | binds | binds | binds | – | ΔN HTRA1 R274Q (from UniProt Q92743) (domain or fragment)
– | – | – | – | – | binds | ΔN HTRA1 D174R-S328A (proteolytically inactive corrector variant) (from UniProt Q92743) (domain or fragment)

Results are given in words; binding and its absence hold for the method and conditions named. Binding can be weak; no strength is given.
